PubChem BioAssay AID493014 (National Center for Advancing Translational Sciences (NCATS), 2011)
This is one part of the list. Further columns of the screen follow, without active or inactive calls. Compounds called inactive in the main read-out are mostly missing here. Potencies come from curve fits of mixed quality, noted in brackets.

Test: qHTS Assay to Find Inhibitors of Chronic Active B-Cell Receptor Signaling
Conditions: ABC-DLBCL IkBa-CBG/CBR reporter, luminescence ratio (green luciferase fused to IkBa over red control in TMD8 lymphoma cells), 4 h
Procedure, shortened: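 TMD8 human ABC-DLBCL cells with doxycycline-inducible IκBα–green luciferase fusion and unfused red luciferase, in 0.5% FBS medium; compounds up to 46 uM, 4 h at 37C. Green/red luminescence ratio, filter-overlap corrected, fitted to concentration-response curves.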

[1] = measured here: CBR red luminescence, cell number
[2] = measured here: IkBa-CBG green luminescence

Row | SMILES | AC50 [1] | AC50 [2]
1 | Cc1cc2cc(CCNC(=O)c3cccs3)c(=O)[nH]c2cc1C | 1.84 µM [rising, full curve] | –
2 | COc1cc(CNC2CCCCC2)c(Br)cc1OC1CCCC1 | 14.1 µM [falling, partial curve, poor fit] | –
3 | S=c1[nH]nc(C2CCCCC2)n1/N=C/c1ccccc1Br | 12.6 µM [rising, single point] | –
4 | Cc1sc(-c2ccncc2)nc1OC(=O)c1ccccc1 | 23.1 µM [falling, partial curve] | –
5 | CCOc1ccc(NC(=S)NC(C)C(c2ccccc2)N2CCN(C)CC2)cc1 (configuration not stated) | 7.94 µM [falling, partial curve] | –
6 | O=C(Nc1cccc(Cl)c1)Nc1csc([N+](=O)[O-])c1 | 35.5 µM [falling, single point] | 12.6 µM [rising, partial curve, poor fit]
7 | O=C(Nc1ccc(CN2CCOCC2)cc1)c1ccc(-c2ccc(Br)cc2)o1 | 20.6 µM [falling, single point] | –
8 | COc1ccc(NC(=S)Nc2ccccn2)c(OC)c1 | – | 18.4 µM [falling, partial curve, poor fit]
9 | Cc1ccc(CNC(=O)c2cc(C3CC3)nc3c2cnn3C(C)C)cc1 | 14.6 µM [falling, partial curve] | –
10 | O=C(NC(=S)N1CCc2ccccc21)c1ccc(Br)o1 | 11.2 µM [rising, partial curve, poor fit] | –
11 | O=S(=O)(Cc1ccccc1)N=Nc1c(O)[nH]c2ccc(Br)cc12 | 35.5 µM [rising, single point] | 35.5 µM [falling, single point]
12 | COc1ccc(NS(=O)(=O)c2ccc(NC(C)=O)cc2)c(OC)c1 | 3.16 µM [falling, partial curve, poor fit] | –
13 | COC(C[C@@H](O)C[C@H](O)[C@@H](C)OCc1ccccc1)OC | 0.562 µM [rising, partial curve, poor fit] | –
14 | CCc1cc(=O)[nH]c(SCc2ccc(C)cc2)n1 | 20 µM [falling, single point] | –
15 | CCCCOc1ccccc1C1NC(=O)CCC1[N+](=O)[O-] (configuration not stated) | 31.6 µM [rising, partial curve, poor fit] | –
16 | Cc1c(OCC(=O)NCCCN2CCCC2=O)ccc2c3c(c(=O)oc12)CCCC3 | 35.5 µM [rising, single point] | –
17 | CN(C(=O)c1cccc(N2C(=O)C3CC=CCC3C2=O)c1)C1CCCCC1 (configuration not stated) | 35.5 µM [falling, single point] | –
18 | CCn1c(SCC(=O)Nc2ccc(OC)c(OC)c2)nnc1-c1cccs1 | 35.5 µM [falling, single point] | –
19 | COc1ccc(C(=O)c2coc3ccc(OC(C)=O)cc23)cc1 | 0.501 µM [rising, partial curve, poor fit] | –
20 | CCOC(=O)c1c(C)n(C)c2ccc(OC)c(NC(=O)CN3CCCCC3)c12 | 11.2 µM [rising, single point] | –
21 | O=[N+]([O-])c1cccc(N/N=C/c2ccc(N3CCOCC3)cc2)c1 | 1 µM [rising, full curve, poor fit] | –

Grouped by structure: those above with an NH in an aromatic ring
Row | SMILES | AC50 [1] | AC50 [2]
1 | Cc1cc2cc(CCNC(=O)c3cccs3)c(=O)[nH]c2cc1C | 1.84 µM [rising, full curve] | –
3 | S=c1[nH]nc(C2CCCCC2)n1/N=C/c1ccccc1Br | 12.6 µM [rising, single point] | –
11 | O=S(=O)(Cc1ccccc1)N=Nc1c(O)[nH]c2ccc(Br)cc12 | 35.5 µM [rising, single point] | 35.5 µM [falling, single point]
14 | CCc1cc(=O)[nH]c(SCc2ccc(C)cc2)n1 | 20 µM [falling, single point] | –

Part of the list above, in markdown:

| Row | SMILES | AC50 [1] | AC50 [2] |
| --- | --- | --- | --- |
| 17 | CN(C(=O)c1cccc(N2C(=O)C3CC=CCC3C2=O)c1)C1CCCCC1 (configuration not stated) | 35.5 µM [falling, single point] | – |
| 18 | CCn1c(SCC(=O)Nc2ccc(OC)c(OC)c2)nnc1-c1cccs1 | 35.5 µM [falling, single point] | – |

Carrying on:

Row | SMILES | AC50 [1] | AC50 [2]
22 | CC[C@]1(C(=O)OC)[C@H]2C(=O)N(C)C(=O)[C@H]2[C@H]2CN=C(SCc3ccc(C(=O)OC)cc3)N21 | 29.1 µM [rising, single point] | 25.9 µM [falling, single point]
23 | COc1ccc2c(c1OC)C(=O)N(c1ccc(O)cc1)C2 | – | 10 µM [falling, partial curve, poor fit]
24 | CCC(C)NC(=O)[C@H](CSCc1ccccc1)N1Cc2ccccc2C1=O (some centres not stated) | 6.51 µM [rising, single point] | –
25 | O=[N+]([O-])c1cc(/C=N\Nc2nc(-c3ccccc3)cs2)ccc1O | 12.6 µM [falling, single point] | –
26 | COc1ccc(CCN(C)Cc2c(O)ccc3ccccc23)cc1OC | 11.2 µM [falling, partial curve] | –
27 | COc1ccccc1CC(=O)Nc1ccc2nc(C)sc2c1 | 18.4 µM [falling, partial curve, poor fit] | –
28 | CCCCc1c(C)c(C#N)c2nc3ccccc3n2c1Cl | 0.092 µM [falling, full curve, poor fit] | –
29 | CSCCC(NS(=O)(=O)/C=C/c1ccccc1)C(=O)NCCc1ccc(S(N)(=O)=O)cc1 (configuration not stated) | 6.31 µM [rising, single point] | –
30 | Cc1oc(-c2ccccc2)nc1CS(=O)CC(=O)NC1CCCCCC1 (configuration not stated) | 35.5 µM [falling, single point] | –
31 | Cc1ccc(NC(=O)C(=S)NCc2ccco2)cc1 | 0.282 µM [rising, partial curve, poor fit] | –
32 | O=C1c2ccccc2C(Nc2ccc3c(c2)OCCO3)N1Cc1ccco1 (configuration not stated) | 6.51 µM [falling, single point] | –
33 | CCCCn1c(-c2ccccc2)nnc1-c1ccccc1 | 6.51 µM [rising, partial curve] | –
34 | COc1cccc2cc(C(=O)NCc3ccco3)c(=Nc3ccc(C(=O)O)cc3)oc12 | 0.411 µM [falling, full curve, poor fit] | –
35 | Cc1nc(CS(=O)(=O)c2ccccn2)sc1C(=O)NNC(=O)c1ccccc1 | 10 µM [falling, partial curve, poor fit] | –
36 | COc1ccc(S(=O)(=O)NCc2ccccn2)cc1NC(=O)c1ccccc1C | 7.31 µM [rising, partial curve] | 8.2 µM [falling, partial curve]
37 | Oc1ccc(/C=N/n2c(-c3ccco3)csc2=Nc2cccnc2)c(O)c1 | 9.2 µM [falling, partial curve, poor fit] | –
38 | CN(C)c1ccc(/C=C/C(O)=C2/C(=O)N(C)C3(C)CC2c2ccccc2O3)cc1 (configuration not stated) | 14.6 µM [rising, single point] | –
39 | CCCCCCNC(=O)N[C@@H](C(=O)NCCC[C@H]1CN2C(=NC[C@@H]2Cc2ccccc2)N1CCc1cccc(OC)c1)C(C)C | 35.5 µM [rising, single point] | 25.1 µM [falling, single point]
40 | O=C(Nc1ccc(N2CCOCC2)c(Cl)c1)c1ccccc1F | 13 µM [falling, partial curve, poor fit] | –
41 | NNC(=O)c1ccc(N2CCCCCC2)c([N+](=O)[O-])c1 | 7.94 µM [falling, partial curve] | –
42 | Cc1sc(NC(=O)C2=COCCO2)nc1-c1ccc(Cl)cc1 | 0.461 µM [rising, full curve, poor fit] | –

Row | SMILES | AC50 [1] | AC50 [2]
43 | COc1ccccc1NC(=O)Nc1nnc(CC(=O)Nc2cccc(C)c2)s1 | 10 µM [falling, partial curve, poor fit] | –
44 | COc1ccc(Nc2cc(Nc3cccc(OC)c3)ncn2)cc1 | 20 µM [falling, partial curve, poor fit] | –
45 | CC(=O)Nc1ccc(S(=O)(=O)Oc2ccc(/C=C3\SC(N)=NC3=O)cc2)cc1 | 14.1 µM [rising, partial curve, poor fit] | –
46 | Cc1ccccc1-n1c([C@@H]2C[C@H]2c2ccccc2)n[nH]c1=S | 6.31 µM [falling, full curve, poor fit] | –
47 | O=C(CSc1cccc2cccnc12)Nc1ccc(S(=O)(=O)N2CCOCC2)cc1 | 10 µM [falling, single point] | –
48 | O=C(NCc1ccon1)C1CCC(=O)N(CCc2ccc(Cl)cc2)C1 (configuration not stated) | 12.6 µM [rising, partial curve, poor fit] | –
49 | COc1cccc(NC(=O)c2ccc(CN3CCOCC3)cc2)c1 | 20 µM [falling, single point] | –
50 | COc1cc(CN2CCN(C(=O)c3cccc4ccccc34)CC2)cc(OC)c1OC | 5.62 µM [rising, partial curve, poor fit] | –
51 | C=CCC1C=C(C)CC(CC=C)N1 (configuration not stated) | 12.6 µM [rising, partial curve, poor fit] | –
52 | COc1ccc([N+](=O)[O-])c(OC)c1C(=O)NC(=O)Nc1nc(C)cc(C)n1 | 0.708 µM [falling, full curve, poor fit] | –
53 | CCOc1cccc2sc(N(CCCN(C)C)C(=O)c3ccc(S(=O)(=O)N(C)c4ccccc4)cc3)nc12 | 35.5 µM [falling, single point] | –
54 | CCn1cc(CN2CCc3c([nH]c4ccccc34)C2c2cccc(OC)c2)c(C)n1 (configuration not stated) | 35.5 µM [falling, single point] | –
55 | COc1ccc(C2C(C)C3(O)CC(C#N)(C(=O)N3)C2(C#N)C#N)cc1 (configuration not stated) | 12.6 µM [rising, partial curve, poor fit] | –
56 | CCc1cccc(OCC(=O)Nc2ccc(C(=O)O)cc2NC(=O)COc2cccc(CC)c2)c1 | 35.5 µM [falling, single point] | –
57 | CCc1nnc(NC(=O)CSc2nnc(-c3ccccc3O)o2)s1 | 7.94 µM [falling, partial curve] | –
58 | N#Cc1nc(COc2ccc(Br)cc2)oc1N1CCCC1 | 15.8 µM [rising, partial curve, poor fit] | –
59 | CCOC(=O)C/C(C)=N/NC(=O)c1cccs1 | 25.1 µM [falling, single point] | –
60 | Cc1ccc(NC(=O)C(=Cc2ccc(C(=O)O)cc2)C(=O)Nc2ccc(C)cc2C)c(C)c1 | 1.12 µM [falling, full curve, poor fit] | –
61 | Cc1ccc(NC(=O)CNCc2cccs2)cc1Br | 1.78 µM [rising, partial curve, poor fit] | –
62 | COc1cc2c(cc1OC)CN(C(=O)CCOc1ccccc1)CC2 | 35.5 µM [rising, single point] | –
